Some of the results follow.

This assay addresses T1, OsSMF1 (Oryza sativa, UniProt Q6ZLB0 1-436).
T1 sequence: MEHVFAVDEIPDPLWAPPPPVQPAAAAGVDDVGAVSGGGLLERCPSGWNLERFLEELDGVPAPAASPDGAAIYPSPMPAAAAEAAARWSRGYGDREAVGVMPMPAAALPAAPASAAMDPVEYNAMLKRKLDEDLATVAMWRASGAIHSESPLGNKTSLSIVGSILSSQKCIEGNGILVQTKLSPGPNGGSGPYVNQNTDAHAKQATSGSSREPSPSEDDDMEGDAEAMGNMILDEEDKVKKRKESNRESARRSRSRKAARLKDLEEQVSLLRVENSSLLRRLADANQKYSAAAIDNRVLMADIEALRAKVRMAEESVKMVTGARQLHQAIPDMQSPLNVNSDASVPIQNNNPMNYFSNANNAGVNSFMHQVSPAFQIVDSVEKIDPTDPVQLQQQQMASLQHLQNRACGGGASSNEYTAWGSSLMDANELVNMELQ
The assay can be described thus: protein-binding microarray (RPBM); PBS, 2% BSA, 51.3 ng/ul salmon testes DNA, 50 uM zinc acetate, 200 nM TF, 25 C, 1 h; high values mean tight binding. Conditions: protein: recombinant; tags: N-terminal polyhistidine and DsRed monomer fusion (pET32a); chain copies: 2; label: CyDye5-dUTP incorporated in the synthesized complementary strand; 3' TTTTT single-stranded linker to array surface; dsDNA, one strand shown. The gist of the method: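 Binding signal is defined as the fluorescence intensity of each feature in arbitrary units, read on an Axon 4000B scanner. Transcription factors with N-terminal polyhistidine and DsRed fusions came from E. coli BL21-CodonPlus and were purified on Ni–NTA. They were incubated at 200 nM for 1 h at 25 °C on a custom Agilent array that had been made double-stranded with Cy5-dUTP, with 50 µM zinc acetate present, and the array was washed.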
In the case of “GCAGTGGTACTCGGTGTGACCTGGTGGAGGCCGTGCTCTCCGGAGTCACCTAGTGCAG”, the binding signal was 3400 fluorescence intensity (a.u.). For “TTGTTTGTCAGATGTAGTGTGCATGTGTGGCATTGCATCACGGAGTCACCTAGTGCAG” the value was 4070 fluorescence intensity (a.u.); for “GAGTTGGTGTGGGTGGGATTGGCATTGTATCGTGAGAGAGCGGAGTCACCTAGTGCAG”, 3170 fluorescence intensity (a.u.); for “AGTGCGAAGTTTGGTGTGTCGTTGTCACGTAACCTTCCCTCGGAGTCACCTAGTGCAG”, 3240 fluorescence intensity (a.u.). For the sequence “ACCAGACCCACCTGTCAGTGACGCGGTTCGGACGAATCCCCGGAGTCACCTAGTGCAG”, the binding signal was 5120 fluorescence intensity (a.u.). Next, “GCACATAGGTGTAGTGTTTGCGTGCGTGTCTTCATAAGAGCGGAGTCACCTAGTGCAG”: 3500 fluorescence intensity (a.u.). For “GTCGTCGCCAAGGAATCATCCATGACGTCAGTCGCCGTGCCGGAGTCACCTAGTGCAG” the value was 7050 fluorescence intensity (a.u.). Next, “TCTAGAAATAACACGTGGTGATTAATATGGTTGTTTGAACCGGAGTCACCTAGTGCAG”: 5460 fluorescence intensity (a.u.). Turning to “GCTCCATACTGTATGCCACGTCCCGTAAGAATACATGACACGGAGTCACCTAGTGCAG”, the binding signal was 6790 fluorescence intensity (a.u.). For “TAAGCAGATTCACAATCAAGTACACAGGCAAGGACGTACGCGGAGTCACCTAGTGCAG” the value was 23300 fluorescence intensity (a.u.). For “AGGAGTGATCGGCTGTTCTCCTGCCACGTCACCGGAATCGCGGAGTCACCTAGTGCAG” the value was 25400 fluorescence intensity (a.u.). Next, “AGACTTCACCTGACCTTGCCTTGCCGGCCAGCGTGGACTCCGGAGTCACCTAGTGCAG”: 3530 fluorescence intensity (a.u.). For “CTCGCCTCCGACCCCGGCCATGGCCTCCTCACGTCGGCTTCGGAGTCACCTAGTGCAG”, the binding signal was 3160 fluorescence intensity (a.u.).

Turning to “ATCCGGAACACAGGACCATTCGATTTTAAGCAATCGGATGCGGAGTCACCTAGTGCAG”, the binding signal is 3950 fluorescence intensity (a.u.).

Regarding “AATCTATGCATATATATATATATATATATGTCTAGATTCACGGAGTCACCTAGTGCAG”, the binding signal is 3240 fluorescence intensity (a.u.). Next, “GATGGAGCATCACCGGCTTAATTAATTACGCGTCACTTGCCGGAGTCACCTAGTGCAG”: 6000 fluorescence intensity (a.u.); “CTGGACTCTGCTGCCACGTGTACTTATAAAATTGTCCCCTCGGAGTCACCTAGTGCAG”: 33600 fluorescence intensity (a.u.); “TTTGGTCAATATACACACTCCGTAATCACCCGGTACAACGCGGAGTCACCTAGTGCAG”: 3950 fluorescence intensity (a.u.). Next, “CGGCCGGCGGCGGGCGCGGCTGGCGACGATGACGACGCAGCGGAGTCACCTAGTGCAG”: 6100 fluorescence intensity (a.u.); “ACTCCCCACCCATATATGAACACGCGCGGCGCCGCAGCGACGGAGTCACCTAGTGCAG”: 3550 fluorescence intensity (a.u.); “CTGAAATGTAGGAATGGAGAGTTCGAAAACAAAGTGGCACCGGAGTCACCTAGTGCAG”: 3950 fluorescence intensity (a.u.). For “AAATGGGGCCTAGAGTTCCAACCAATTGCAGCAAGAGCAGCGGAGTCACCTAGTGCAG” the value was 3230 fluorescence intensity (a.u.); for “GCACCGACCGAGCGAGCAAATGAGGAGTGGGAAGGTGACGCGGAGTCACCTAGTGCAG”, 3160 fluorescence intensity (a.u.); for “TATGTGCGCTCATGGATCACATTGTTTTACCTAACTGGTCCGGAGTCACCTAGTGCAG”, 28900 fluorescence intensity (a.u.). Take “TCGTATTAAATACGATGACTTCACTTCACGATAAATATCACGGAGTCACCTAGTGCAG”: the binding signal was 3230 fluorescence intensity (a.u.). As to “CGAAATTGGATGAAATGGCAATGTGGCAAGATGGTGACGTCGGAGTCACCTAGTGCAG”, the binding signal was 5320 fluorescence intensity (a.u.). Next, “CACCAGCCCACCATCCACCGCCACGTGGGACCCACCGCCCCGGAGTCACCTAGTGCAG”: 13000 fluorescence intensity (a.u.); “TCGTTTGTGATCGTACGCTAGCTCTCTCGACGATGCCTGACGGAGTCACCTAGTGCAG”: 3390 fluorescence intensity (a.u.).

Take “TGCCTCGTAAATGCACAAAATCGGAGGGGTTTTATGCAAACGGAGTCACCTAGTGCAG”: the binding signal is 20200 fluorescence intensity (a.u.).

As for “TTTATAACGGCCGTTCTGGTCCAAATACGAGCCCATTACACGGAGTCACCTAGTGCAG”, the binding signal was 3270 fluorescence intensity (a.u.).

Turning to “ATATCTGACCGTGACTTACAGAGTAGCAACAGGGCCCAATCGGAGTCACCTAGTGCAG”, the binding signal was 3290 fluorescence intensity (a.u.). For “AGTCCTGGATCCATCTCAGCGCCACGTCAACTGGTGCTGACGGAGTCACCTAGTGCAG” the value was 6800 fluorescence intensity (a.u.); for “CTCCTCCGCCTCCCCGCCATCATTCCTCCTTCACCCTAGCCGGAGTCACCTAGTGCAG”, 3710 fluorescence intensity (a.u.); for “GCGCCCGTCCAGTGGCGACTGGCGATGTATATATCCTTTGCGGAGTCACCTAGTGCAG”, 3140 fluorescence intensity (a.u.). Take “ATGAATGACCCTGCGACAACAAACCACATCATATCATGCGCGGAGTCACCTAGTGCAG”: the binding signal was 3740 fluorescence intensity (a.u.). For “TTAGCCCACTACTCCCTTCTCAATCTTGACGTGTCACCGCCGGAGTCACCTAGTGCAG” the value was 17300 fluorescence intensity (a.u.); for “GGGTAACGGAATTAGAAAGTGGTGTGAATGGAATCAGATCCGGAGTCACCTAGTGCAG”, 25600 fluorescence intensity (a.u.).

For the sequence “TACAAAGCCATCGATGTATGGTGATGATGCTGTCAGATACCGGAGTCACCTAGTGCAG”, the binding signal was 4510 fluorescence intensity (a.u.). As for “TCGCCCCGCCAAATCCCCACCGCTCCAAATTTCGAAAACCCGGAGTCACCTAGTGCAG”, the binding signal was 6260 fluorescence intensity (a.u.).

Turning to “GTTTTCTAGTCATGTCTATCCTATTAGGTGTCTTTCTATTCGGAGTCACCTAGTGCAG”, the binding signal is 4090 fluorescence intensity (a.u.). Next, “TCCAACTCACACCGTGTGCTGATGTGGCATGCCATGGTGGCGGAGTCACCTAGTGCAG”: 35900 fluorescence intensity (a.u.); “TCCTCTTGCCTCCTCCGCTGAGGCAGCCAGTGCGTGCGCCCGGAGTCACCTAGTGCAG”: 3360 fluorescence intensity (a.u.). In the case of “ATTGTCAAAATCATGGCGTAATTAGACTCAAAAGATCCGTCGGAGTCACCTAGTGCAG”, the binding signal is 21700 fluorescence intensity (a.u.).

“GAAGAGAATCAGAGATGGTGGTGTGTCGTTGAACACGTTGCGGAGTCACCTAGTGCAG”: the binding signal is 3390 fluorescence intensity (a.u.). For the sequence “AATTTTGGCATGTATGTGAGGTTGCATCTTTACTTGTACACGGAGTCACCTAGTGCAG”, the binding signal was 3200 fluorescence intensity (a.u.).

On to “CACAAACTTATGAAATCTATGATTAGTCAGCTAGCCGTTGCGGAGTCACCTAGTGCAG”, for which the binding signal is 6550 fluorescence intensity (a.u.). For “AATCCATCTGCTTGGATCATCAAAATCATAATATTATGTGCGGAGTCACCTAGTGCAG” the value was 3270 fluorescence intensity (a.u.); for “CACTTCTGTACTTGGCGTGATTGGGCCGCGGACCGGTAGACGGAGTCACCTAGTGCAG”, 3190 fluorescence intensity (a.u.); for “GAGTTGATGTTTTAGTTGAGCGAAAAGAGAAAACGAGGAGCGGAGTCACCTAGTGCAG”, 37500 fluorescence intensity (a.u.). For “CGGGAGGAATCTACCCATGGGAGTGGGACGCCCAATGCCTCGGAGTCACCTAGTGCAG” the value was 20300 fluorescence intensity (a.u.); for “CCCATGGCGTGCCACTCCGGCGGTCCGGCCGCCACGTCAGCGGAGTCACCTAGTGCAG”, 38500 fluorescence intensity (a.u.); for “ACTAGCTAGTGATCGTATCAGTGTCTGTCACCTGCAGGATCGGAGTCACCTAGTGCAG”, 3280 fluorescence intensity (a.u.). Next, “GTGGAGTGAATTTCATGACTAGGTCAATTTTAGTAATGTTCGGAGTCACCTAGTGCAG”: 3220 fluorescence intensity (a.u.). Regarding “TCCACAGAAAACATGAGAAGGATGAACAAATGCATGCCATCGGAGTCACCTAGTGCAG”, the binding signal was 36600 fluorescence intensity (a.u.).

These data come from PMC7819943, “Rice protein-binding microarrays: a tool to detect cis-acting elements near promoter regions in rice”.
